The supplement of paper PMC7661543
Differences between knockout arms are mostly noise.

System: SKBR3
Assay: relative cell number vs DMSO control (72 h) (% of DMSO); higher = less growth inhibition (more cells)
Experimental: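 QMAP-Seq: a pool of 5 breast cancer cell lines (ZR-75-1, SKBR3, HCC-38, MDA-MB-231, BT-20), each carrying 12 doxycycline-inducible Cas9 sgRNA perturbations (11 knockouts plus non-targeting sgNT), was treated with compounds for 72 h at four 10-fold doses (10 nM-10 uM or 1 nM-1 uM range). Barcodes were amplified and sequenced, and cell number was interpolated from 293T spike-in standard curves. The result is expressed as % of the median of DMSO wells. Two biological replicates.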

CC(C)[C@]12O[C@H]1[C@@H]1O[C@]13[C@]1(O[C@H]1C[C@H]1C4=C(CC[C@@]13C)C(=O)OC4)[C@@H]2O [Triptolide]
Details | relative cell number
sgRNA knockout: sgATF3, 1 nM | 115
sgRNA knockout: sgATF3, 10 nM | 60.6
sgRNA knockout: sgATF3, 100 nM | 8.45
sgRNA knockout: sgATF3, 1000 nM | 7.43
sgRNA knockout: sgATF4, 1 nM | 104
sgRNA knockout: sgATF4, 10 nM | 66.1
sgRNA knockout: sgATF4, 100 nM | 9.47
sgRNA knockout: sgATF4, 1000 nM | 8.87
sgRNA knockout: sgATF6, 1 nM | 87.9
sgRNA knockout: sgATF6, 10 nM | 62.5
sgRNA knockout: sgATF6, 100 nM | 12.2
sgRNA knockout: sgATF6, 1000 nM | 7.75
sgRNA knockout: sgATG7, 1 nM | 99.1
sgRNA knockout: sgATG7, 10 nM | 46.2
sgRNA knockout: sgATG7, 100 nM | 7.65
sgRNA knockout: sgATG7, 1000 nM | 8.55
sgRNA knockout: sgERN1, 1 nM | 78.5
sgRNA knockout: sgERN1, 10 nM | 54.2
sgRNA knockout: sgERN1, 100 nM | 8.78
sgRNA knockout: sgERN1, 1000 nM | 8.16
sgRNA knockout: sgHSF1, 1 nM | 93.7
sgRNA knockout: sgHSF1, 10 nM | 57.8
sgRNA knockout: sgHSF1, 100 nM | 12.7
sgRNA knockout: sgHSF1, 1000 nM | 11.2
sgRNA knockout: sgHSF2, 1 nM | 85.7
sgRNA knockout: sgHSF2, 10 nM | 53.4
sgRNA knockout: sgHSF2, 100 nM | 9.68
sgRNA knockout: sgHSF2, 1000 nM | 12.15
sgRNA knockout: sgKEAP1, 1 nM | 100
sgRNA knockout: sgKEAP1, 10 nM | 53
sgRNA knockout: sgKEAP1, 100 nM | 7.76
sgRNA knockout: sgKEAP1, 1000 nM | 8.26
sgRNA knockout: sgNFE2L2, 1 nM | 90.4
sgRNA knockout: sgNFE2L2, 10 nM | 59.8
sgRNA knockout: sgNFE2L2, 100 nM | 12.6
sgRNA knockout: sgNFE2L2, 1000 nM | 7.87
sgRNA knockout: sgSLC35F2, 1 nM | 88.5
sgRNA knockout: sgSLC35F2, 10 nM | 53.7
sgRNA knockout: sgSLC35F2, 100 nM | 10
sgRNA knockout: sgSLC35F2, 1000 nM | 5.78
sgRNA knockout: sgXBP1, 1 nM | 74.5
sgRNA knockout: sgXBP1, 10 nM | 50.632
sgRNA knockout: sgXBP1, 100 nM | 8.49
sgRNA knockout: sgXBP1, 1000 nM | 9.32

Cc1onc(-c2ccccc2)c1-c1ccc(S(N)(=O)=O)cc1 [Valdecoxib]
Details | relative cell number
sgRNA knockout: sgATF3, 10 nM | 98.8
sgRNA knockout: sgATF3, 100 nM | 99.9
sgRNA knockout: sgATF3, 1000 nM | 128
sgRNA knockout: sgATF3, 10000 nM | 108
sgRNA knockout: sgATF4, 10 nM | 93.5
sgRNA knockout: sgATF4, 100 nM | 98.7
sgRNA knockout: sgATF4, 1000 nM | 92.2
sgRNA knockout: sgATF4, 10000 nM | 109
sgRNA knockout: sgATF6, 10 nM | 105
sgRNA knockout: sgATF6, 100 nM | 104
sgRNA knockout: sgATF6, 1000 nM | 110
sgRNA knockout: sgATF6, 10000 nM | 101
sgRNA knockout: sgATG7, 10 nM | 88.2
sgRNA knockout: sgATG7, 100 nM | 111
sgRNA knockout: sgATG7, 1000 nM | 100
sgRNA knockout: sgATG7, 10000 nM | 116
sgRNA knockout: sgERN1, 10 nM | 91.1
sgRNA knockout: sgERN1, 100 nM | 79.9
sgRNA knockout: sgERN1, 1000 nM | 106
sgRNA knockout: sgERN1, 10000 nM | 116
sgRNA knockout: sgHSF1, 10 nM | 103.9
sgRNA knockout: sgHSF1, 100 nM | 95.2
sgRNA knockout: sgHSF1, 1000 nM | 103
sgRNA knockout: sgHSF1, 10000 nM | 111
sgRNA knockout: sgHSF2, 10 nM | 98.5
sgRNA knockout: sgHSF2, 100 nM | 85.7
sgRNA knockout: sgHSF2, 1000 nM | 92.6
sgRNA knockout: sgHSF2, 10000 nM | 104
sgRNA knockout: sgKEAP1, 10 nM | 78.5
sgRNA knockout: sgKEAP1, 100 nM | 113
sgRNA knockout: sgKEAP1, 1000 nM | 105
sgRNA knockout: sgKEAP1, 10000 nM | 125
sgRNA knockout: sgNFE2L2, 10 nM | 104
sgRNA knockout: sgNFE2L2, 100 nM | 107
sgRNA knockout: sgNFE2L2, 1000 nM | 102
sgRNA knockout: sgNFE2L2, 10000 nM | 116
sgRNA knockout: sgSLC35F2, 10 nM | 87.1
sgRNA knockout: sgSLC35F2, 100 nM | 112
sgRNA knockout: sgSLC35F2, 1000 nM | 86.6
sgRNA knockout: sgSLC35F2, 10000 nM | 116
sgRNA knockout: sgXBP1, 10 nM | 92.9
sgRNA knockout: sgXBP1, 100 nM | 91.7
sgRNA knockout: sgXBP1, 1000 nM | 120
sgRNA knockout: sgXBP1, 10000 nM | 97.5

Cc1cnc(Nc2ccc(OCCN3CCCC3)cc2)nc1Nc1cccc(S(=O)(=O)NC(C)(C)C)c1
Details | relative cell number
sgRNA knockout: sgATF3, 10 nM | 91.9
sgRNA knockout: sgATF3, 100 nM | 72
sgRNA knockout: sgATF3, 1000 nM | 58.1
sgRNA knockout: sgATF3, 10000 nM | 30.7
sgRNA knockout: sgATF4, 10 nM | 84
sgRNA knockout: sgATF4, 100 nM | 92.6
sgRNA knockout: sgATF4, 1000 nM | 57.4
sgRNA knockout: sgATF4, 10000 nM | 28.3
sgRNA knockout: sgATF6, 10 nM | 85.5
sgRNA knockout: sgATF6, 100 nM | 86.6
sgRNA knockout: sgATF6, 1000 nM | 55.5
sgRNA knockout: sgATF6, 10000 nM | 21.8
sgRNA knockout: sgATG7, 10 nM | 86.9
sgRNA knockout: sgATG7, 100 nM | 80.1
sgRNA knockout: sgATG7, 1000 nM | 68.86
sgRNA knockout: sgATG7, 10000 nM | 23.2
sgRNA knockout: sgERN1, 10 nM | 97.8
sgRNA knockout: sgERN1, 100 nM | 97.8
sgRNA knockout: sgERN1, 1000 nM | 54.3
sgRNA knockout: sgERN1, 10000 nM | 21.9
sgRNA knockout: sgHSF1, 10 nM | 99.5
sgRNA knockout: sgHSF1, 100 nM | 79.4
sgRNA knockout: sgHSF1, 1000 nM | 62.2
sgRNA knockout: sgHSF1, 10000 nM | 23.8
sgRNA knockout: sgHSF2, 10 nM | 88
sgRNA knockout: sgHSF2, 100 nM | 78.7
sgRNA knockout: sgHSF2, 1000 nM | 57.4
sgRNA knockout: sgHSF2, 10000 nM | 25.1
sgRNA knockout: sgKEAP1, 10 nM | 84.3
sgRNA knockout: sgKEAP1, 100 nM | 85.6
sgRNA knockout: sgKEAP1, 1000 nM | 56.59
sgRNA knockout: sgKEAP1, 10000 nM | 23.2
sgRNA knockout: sgNFE2L2, 10 nM | 96.5
sgRNA knockout: sgNFE2L2, 100 nM | 92
sgRNA knockout: sgNFE2L2, 1000 nM | 58.3
sgRNA knockout: sgNFE2L2, 10000 nM | 23.2
sgRNA knockout: sgSLC35F2, 10 nM | 97.2
sgRNA knockout: sgSLC35F2, 100 nM | 71.8
sgRNA knockout: sgSLC35F2, 1000 nM | 59.7
sgRNA knockout: sgSLC35F2, 10000 nM | 24.8
sgRNA knockout: sgXBP1, 10 nM | 82.7
sgRNA knockout: sgXBP1, 100 nM | 115
sgRNA knockout: sgXBP1, 1000 nM | 43.6
sgRNA knockout: sgXBP1, 10000 nM | 26.5
